{"source": "patent US11998610B2", "about": "“Conjugates and methods of using the same” (Flagship Pioneering Innovations V, Inc., priority 2018, dated 2024)", "key": {"[1]": {"system": "WT ClbP", "assay": "Assay with purified ClbP protein (LCMS)", "format": "biochemical, E. coli", "conditions": "20 μM WT ClbP, 100 μM compound, room temperature, 24 h", "protocol": "This example is representative of the method described in Example 91 the soluble peptidase domain (amino acids 38 to 375) of ClbP or the catalytically inert mutant S95A was cloned into pET28a using previously defined boundaries as a starting point (Brotherton, J. Am. Chem. Soc., 135:3359-3362, 2013).\nWT ClbP or S95A ClbP was isolated as an N-terminally tagged HiS6-SUMO1-fusion protein from […] using E. coli BL21(DE3)RIPL to express the protein. The cells were lysed in 30 mM Tris pH 8.0, 300 mM NaCl, 10% (v/v) glycerol, benzonase (Sigma-Millipore), lysozyme, B-per (ThermoFisher), and Y-per (ThermoFisher). […] The fractions containing the protein were determined by SDS-PAGE, combined, and concentrated by centrifuge filtration. […]\nThe reaction was centrifuged (4,000 g, 15 min), and then the supernatant was analyzed by LCMS. […] The UV-Vis spectrum from 210-400 nm was monitored with 3.6 nm resolution. Positive and negative mode ESI were monitored from 100-1000 m/z with a 20 V cone voltage at 5 Hz sampling frequency in centroid collection.\nThe relative starting material remaining in the WT ClbP reaction was determined by LCMS and then compared to the residual starting material in the no-enzyme and catalytically inert enzyme (S95A ClbP) reactions. […]\nFormation of the anticipated product was likewise quantified by LCMS analysis and confirmed by coelution with an external product standard. […]"}, "[2]": {"system": "E. coli CFT073 ATCC 700928 and/or E. coli Nissle 1917", "assay": "Cell-based assay with ClbP with LCMS, ClbP positive strain", "conditions": "ClbP-encoding E. coli, 10 μM compound, 37° C., 20 h", "protocol": "This example is representative of the methods described in Example 97. ClbP was tested for its ability to activate compounds. […] Each of these three strains was struck out onto an appropriate solid media such as LB agar or BHI agar. The bacteria were then grown aerobically overnight at 37° C.\nA single colony was isolated from the plate and inoculated into 10 mL LB. The liquid cultures were grown overnight aerobically at 37° C. with rocking on a nutator.\nThe saturated E. coli cultures were transferred into a biosafety cabinet. 5 μL of each culture was inoculated into fresh LB broth (200 μL total, 1:40 (v/v) dilution of the overnight culture), and the tested compound was added to a final concentration of 10 μM. […]\nThe amount of each remaining parent compound in each incubation was quantified by LC-MS analysis, with multiple-reaction monitoring targeting transitions specific to each parent compound.\nThe amount of compound present in the media-alone condition was normalized to 100%. The amount of parent compound present in the reaction with the ClbP-encoding E. coli (E. coli CFT073 ATCC 700928 and/or E. coli Nissle 1917) was compared to the amount present in the media-alone and expressed as a percent. Likewise, the amount of parent compound present in the reaction with the negative control E. coli BL21(DE3) was compared to the amount present in the media-alone and expressed as a percent. […]"}}, "note": "At least one compound was matched to its structure with a doubt left. Non-standard residues stand in square brackets, D forms with d. Residues, ends and D or L forms follow the SMILES beside them. *: point of attachment. Butyryl = CCCC(=O)*", "data": [{"smiles": "CCCC(=O)N[C@H](CC(N)=O)C(=O)N[C@@H](C)C(=O)OC", "note": "[Example 12, Methyl butyryl-D-asparaginyl-L-alaninate] (Butyryl-[dN]-Ala-OMe)", "values": [{"measurement": "Status (compound remaining in WT ClbP reaction relative to no-enzyme control)", "setting": "[1]", "value": "++ (<25% compound remaining in the 20 μM WT ClbP reaction relative to the control)"}, {"measurement": "% Remaining in ClbP Positve Relative to Media-Only", "setting": "[2]", "value": "− (>75% compound remaining in the 20 μM WT ClbP reaction relative to the no-enzyme control)"}]}]}
